# Measured values: PubChem BioAssay AID256 (DTP/NCI, 2004)
# The list shows only some results of the screen, not a fair sample: it is rich in T/C values a quarter to a half above the control, in often repeated tests (any T/C) and in doses without a T/C. Other doses and runs of a compound stand elsewhere. T/C is the treated group as % of the vehicle group. Some entries give survivors of the animals treated and no T/C: the source holds a T/C of zero for them, seemingly a mark for toxic or unscored doses. Some doses without a T/C left all or most animals alive at the check, yet need not have been tolerated: the source hardly ever lists a survival T/C far under the control, and the zero likely stands for such cases as well. Counts of survivors are from the toxicity check (mostly the fifth day) where no day follows; animals may have died later. Schedule codes are those of the source, read here as Q, the interval in days (D) or hours (H), X, the number of doses. Some entries hold several experiments; their values stand side by side, smallest first. Some schedules carry Z or #; the key to these is not given. Where survival is the endpoint, the PubChem record calls one and a half times the control and up active, and a quarter to a half above the control has no call in these data; cut-offs in other NCI protocols can differ. Some T/C values carry the count of animals alive at the toxicity check (mostly the fifth day); where none is given, no animal had died by that day.
# System: CD2F1 mice, L1210 leukemia ip, survival T/C
# Assay: NCI In Vivo Anticancer Drug Screen. Data for tumor model L1210 Leukemia (intraperitoneal) in CD2F1 (CDF1) mice
# Conditions: higher T/C = longer survival
# Summary of the method: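 Compound-dosed mice with transplantable tumor versus matched vehicle controls; endpoint ratio T/C reported.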
# [1] = T/C endpoint: mean survival time, dose: 400.0 mg/kg/injection, schedule: Q01DX009 (ip), vehicle: saline
# [2] = T/C endpoint: mean survival time, dose: 400.0 mg/kg/injection, schedule: Q04DX003 (ip), vehicle: saline with Tween-80
# [3] = T/C endpoint: mean survival time, dose: 200.0 mg/kg/injection, schedule: Q04DX003 (ip), vehicle: saline with Tween-80
# [4] = T/C endpoint: mean survival time, dose: 100.0 mg/kg/injection, schedule: Q01DX009 (ip), vehicle: saline with Tween-80
# [5] = T/C endpoint: mean survival time, dose: 200.0 mg/kg/injection, schedule: Q01DX009 (ip), vehicle: saline with Tween-80
# [6] = T/C endpoint: mean survival time, dose: 400.0 mg/kg/injection, schedule: Q01DX009 (ip), vehicle: saline with Tween-80
# [7] = T/C endpoint: mean survival time, dose: 400.0 mg/kg/injection, schedule: Q04DX002 (ip), vehicle: saline with Tween-80
# [8] = T/C endpoint: mean survival time, dose: 100.0 mg/kg/injection, schedule: Q01DX009 (ip), vehicle: Klucel (hydroxypropylcellulose) (HPC)
# [9] = T/C endpoint: mean survival time, dose: 200.0 mg/kg/injection, schedule: Q01DX009 (ip), vehicle: Klucel (hydroxypropylcellulose) (HPC)
# [10] = T/C endpoint: mean survival time, dose: 300.0 mg/kg/injection, schedule: Q01DX001 (ip), vehicle: saline
# [11] = T/C endpoint: mean survival time, dose: 200.0 mg/kg/injection, schedule: Q04DX002 (ip), vehicle: saline with Tween-80
structure (smiles),measurement,setting,value
O=[N+]([O-])c1ccc(CSC2=NCCN2)cc1,survivor count,"T/C endpoint: mean survival time, dose: 200.0 mg/kg/injection, schedule: Q01DX009 (ip), vehicle: saline",0 of 6
same,survivor count,[1],0 of 6
O=C1C2C(c3ccccc3)=C(c3ccccc3)C1[C@@]1(c3ccccc3)C(c3ccccc3)=CC(=O)[C@@H]21 (stereo not given in full),survivor count,"T/C endpoint: mean survival time, dose: 200.0 mg/kg/injection, schedule: Q01DX001 (ip), vehicle: saline with Tween-80",6 of 6
c1ccc2cc(N=NNc3ccc4ccccc4c3)ccc2c1,survivor count,[2],4 of 6
O=C(c1cc2c3ccccc3ccc2c2ccccc12)C(Br)Br,survivor count,[3],5 of 6
same,survivor count,[2],5 of 6
NC(=O)c1cn(C2OC(CO)CC2O)c2ncnc(N)c12 (stereo not given),T/C,"T/C endpoint: mean survival time, dose: 4.0 mg/kg/injection, schedule: Q01DX009 (ip), vehicle: water",128 % of control
same,T/C,"T/C endpoint: mean survival time, dose: 16.0 mg/kg/injection, schedule: Q01DX009 (ip), vehicle: water",127 % of control
same,T/C,"T/C endpoint: mean survival time, dose: 64.0 mg/kg/injection, schedule: Q01DX009 (ip), vehicle: water",144 % of control
Cc1ccccc1N=C=S,survivor count,[4],1 of 6
same,survivor count,[5],0 of 6
same,survivor count,[6],0 of 6
C=CCCCCC(=O)c1ccccc1,survivor count,[7],1 of 3
CC(C)(C)C1=CC(=O)C(C#N)=C(C#N)C1=O,survivor count,"T/C endpoint: mean survival time, dose: 50.0 mg/kg/injection, schedule: Q01DX009 (ip), vehicle: saline with Tween-80",3 of 6
same,survivor count,[4],0 of 6
C#CC(=O)c1ccccc1,survivor count,"T/C endpoint: mean survival time, dose: 18.8 mg/kg/injection, schedule: Q04DX003 (ip), vehicle: saline",6 of 6
same,survivor count,"T/C endpoint: mean survival time, dose: 37.5 mg/kg/injection, schedule: Q04DX003 (ip), vehicle: saline",0 of 6
[NH-]NC(=S)[S-].[NH-]NC(=S)[S-].[Pd],survivor count,[3],4 of 6
same,survivor count,[2],0 of 6
Cc1cc(N(CCOS(C)(=O)=O)CCOS(C)(=O)=O)ccc1N=Nc1ccccc1,survivor count,"T/C endpoint: mean survival time, dose: 50.0 mg/kg/injection, schedule: Q01DX009 (ip), vehicle: Klucel (hydroxypropylcellulose) (HPC)",3 of 3
same,survivor count,[8],3 of 3
same,survivor count,[9],3 of 3
Cc1cn(C2CC3O[P@@](=S)(Nc4ccccc4)OCC3O2)c(=O)[nH]c1=O (stereo not given in full),survivor count,"T/C endpoint: median survival time, dose: 92.0 mg/kg/injection, schedule: Q01DX005 (ip), vehicle: saline with Tween-80",5 of 6
CCN(CC)c1ccc(C)cc1Cl,survivor count,"T/C endpoint: mean survival time, dose: 200.0 mg/kg/injection, schedule: Q04DX003 (ip), vehicle: saline sonified",1 of 6
same,survivor count,"T/C endpoint: mean survival time, dose: 400.0 mg/kg/injection, schedule: Q04DX003 (ip), vehicle: saline sonified",1 of 6
CC1(CO)C2C=CC(C2)C1(C)CO (stereo not given),survivor count,[10],1 of 6
O=C(O)CC(NC(=O)OCc1ccccc1)C(=O)OCc1ccccc1 (stereo not given),survivor count,[6],3 of 6
O=NN1CCOC1=NC1CCCCC1,survivor count,"T/C endpoint: mean survival time, dose: 800.0 mg/kg/injection, schedule: Q01DX001 (ip), vehicle: distilled water + Tween-80",0 of 6
CC(=O)Nc1cc(N)cc(-c2ccccc2)c1,T/C,"T/C endpoint: mean survival time, dose: 100.0 mg/kg/injection, schedule: Q04DX002 (ip), vehicle: saline with Tween-80","91, 100, 104, 122 % of control"
same,T/C,[11],"95, 100, 108, 125 % of control"
same,T/C,[7],"91, 92, 103, 112 % of control"
Nc1nc(N)c(N)c(/C=C/c2ccccc2)n1,survivor count,"T/C endpoint: mean survival time, dose: 10.0 mg/kg/injection, schedule: Q01DX009 (ip), vehicle: water",1 of 6
CC(C)N=C(N)c1ccc(NC(=O)c2ccc(C(=O)Nc3ccc(C(N)=NC(C)C)cc3)cc2)cc1,survivor count,"T/C endpoint: mean survival time, dose: 12.5 mg/kg/injection, schedule: Q01DX Z (ip), vehicle: water",2 of 6
same,survivor count,"T/C endpoint: mean survival time, dose: 25.0 mg/kg/injection, schedule: Q01DX Z (ip), vehicle: water",0 of 6
same,survivor count,"T/C endpoint: mean survival time, dose: 50.0 mg/kg/injection, schedule: Q01DX Z (ip), vehicle: water",0 of 6
CN(C)c1ccc(C(=C(c2ccc(N(C)C)cc2)c2ccc(N(C)C)cc2)c2ccc(N(C)C)cc2)cc1,survivor count,"T/C endpoint: mean survival time, dose: 150.0 mg/kg/injection, schedule: Q01DX001 (ip), vehicle: saline",0 of 6
same,survivor count,[10],0 of 6
CN(C)S(=O)(=O)c1ccccc1C1(O)c2ccccc2-c2ccccc21,survivor count,[5],6 of 6
same,survivor count,[2],6 of 6
C(OC[C@H]1CC[C@@H](COCC2CO2)O1)C1CO1 (stereo not given in full),T/C,"T/C endpoint: mean survival time, dose: 300.0 mg/kg/injection, schedule: Q01DX009 (ip), vehicle: saline",130 % of control
CC1CC(C)CC(C)C(O)/C(C#N)=C/C=C/CC(C2CCCC2C(=O)O)OC(=O)CC(O)C(C)C1 (stereo not given),survivor count,"T/C endpoint: mean survival time, dose: 12.5 mg/kg/injection, schedule: Q01DX009 (ip), vehicle: Klucel (hydroxypropylcellulose) (HPC)",3 of 6
same,survivor count,"T/C endpoint: mean survival time, dose: 25.0 mg/kg/injection, schedule: Q01DX009 (ip), vehicle: Klucel (hydroxypropylcellulose) (HPC)",2 of 6
C[n+]1cccc(NC(=O)COc2ccc(Cl)c(Cl)c2)c1,survivor count,[3],3 of 6
same,survivor count,[2],0 of 6
COc1ccc(NC(=O)Oc2ccccc2C(C)C)cc1,survivor count,[11],3 of 3
CCc1ccc(Nc2c3ccccc3nc3ccccc23)cc1,T/C,[4],131 % of control [5 of 6 alive]
same,survivor count,[5],6 of 6
same,survivor count,[6],1 of 6
N#CC(/C=C/c1ccccc1)Nc1ccccc1O (stereo not given),survivor count,[5],2 of 6
same,survivor count,[6],0 of 6
O=C(Cl)c1ccccc1Sc1ccccc1,survivor count,[3],2 of 6
same,survivor count,[2],1 of 6
O=[N+]([O-])c1c(O)c(CNCCCO)cc(CNCCCO)c1O,survivor count,"T/C endpoint: median survival time, dose: 100.0 mg/kg/injection, schedule: Q01DX009 (ip), vehicle: saline",4 of 6
same,survivor count,"T/C endpoint: median survival time, dose: 200.0 mg/kg/injection, schedule: Q01DX009 (ip), vehicle: saline",0 of 6
COC1C(CO)OC(n2cnc3c(=S)nc(N)[nH]c32)C1O (stereo not given),T/C,[8],149 % of control
same,T/C,[9],131 and 137 % of control
same,T/C,"T/C endpoint: mean survival time, dose: 400.0 mg/kg/injection, schedule: Q01DX009 (ip), vehicle: Klucel (hydroxypropylcellulose) (HPC)",131 % of control
O=C(O)c1ccsc1,survivor count,"T/C endpoint: mean survival time, dose: 150.0 mg/kg/injection, schedule: Q04DX003 (ip), vehicle: saline with Tween-80",3 of 6
NC(=O)c1cc([N+](=O)[O-])ccc1NN=NCCF,survivor count,"T/C endpoint: mean survival time, dose: 100.0 mg/kg/injection, schedule: Q01DX001 (ip), vehicle: Klucel (hydroxypropylcellulose) (HPC)",0 of 3
same,survivor count,"T/C endpoint: mean survival time, dose: 200.0 mg/kg/injection, schedule: Q01DX001 (ip), vehicle: Klucel (hydroxypropylcellulose) (HPC)",0 of 3
CCOC(=O)C(N)CSC(=O)NC (stereo not given),T/C,[1],132 and 133 % of control
Clc1ccc(Sc2ccc(Cl)cc2)cc1,survivor count,[2],5 of 6
O=Nc1c(S(=O)(=O)O)cc2cc(S(=O)(=O)O)cc(O)c2c1O.[Cu+2],survivor count,"T/C endpoint: mean survival time, dose: 1.25 mg/kg/injection, schedule: Q01DX009 (ip), vehicle: saline",2 of 6
same,survivor count,"T/C endpoint: mean survival time, dose: 2.5 mg/kg/injection, schedule: Q01DX009 (ip), vehicle: saline",1 of 6
same,survivor count,"T/C endpoint: mean survival time, dose: 5.0 mg/kg/injection, schedule: Q01DX009 (ip), vehicle: saline",1 of 6
same,survivor count,"T/C endpoint: mean survival time, dose: 10.0 mg/kg/injection, schedule: Q04DX003 (ip), vehicle: saline",0 of 6
same,survivor count,"T/C endpoint: mean survival time, dose: 20.0 mg/kg/injection, schedule: Q04DX003 (ip), vehicle: saline",0 of 6
same,survivor count,"T/C endpoint: mean survival time, dose: 40.0 mg/kg/injection, schedule: Q04DX003 (ip), vehicle: saline",0 of 6
Fc1ccc(Nc2c3ccccc3nc3ccccc23)cc1,survivor count,[5],2 of 6
same,survivor count,[6],0 of 6
CN(C)S(=O)(=O)Oc1cccc([N+](=O)[O-])c1,survivor count,[3],6 of 6
same,survivor count,[2],1 of 6
COc1ccc(-c2csc(=[N+]3CCCCC3)s2)cc1,survivor count,"T/C endpoint: mean survival time, dose: 50.0 mg/kg/injection, schedule: Q01DX009 (ip), vehicle: water",0 of 10 and 0 of 6
CN(C)/C=N\c1ncnc2c1ccn2C1OC(CO)C(O)C1O (stereo not given),survivor count,"T/C endpoint: mean survival time, dose: 100.0 mg/kg/injection, schedule: Q01DX005 (ip), vehicle: saline",0 of 6
same,survivor count,"T/C endpoint: mean survival time, dose: 200.0 mg/kg/injection, schedule: Q01DX005 (ip), vehicle: saline",0 of 6
